Data published in publication PMC10477855.
No constants are given. Whether binding was seen depends on the method and setting. In cells and extracts the contact can be indirect. A yes stands for co-enrichment or nearness to the bait. Other partners may have been found.

Chains of the proteins cited; added tags and fusions are not shown.
UniProt P06493: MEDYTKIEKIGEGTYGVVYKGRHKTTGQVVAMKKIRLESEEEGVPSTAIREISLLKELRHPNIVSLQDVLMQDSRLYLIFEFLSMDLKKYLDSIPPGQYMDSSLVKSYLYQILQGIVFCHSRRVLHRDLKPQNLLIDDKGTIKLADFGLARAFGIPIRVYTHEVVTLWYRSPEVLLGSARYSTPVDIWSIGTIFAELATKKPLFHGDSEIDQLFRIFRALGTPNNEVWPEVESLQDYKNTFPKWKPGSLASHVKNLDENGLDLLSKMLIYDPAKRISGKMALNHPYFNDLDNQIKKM
UniProt O95071: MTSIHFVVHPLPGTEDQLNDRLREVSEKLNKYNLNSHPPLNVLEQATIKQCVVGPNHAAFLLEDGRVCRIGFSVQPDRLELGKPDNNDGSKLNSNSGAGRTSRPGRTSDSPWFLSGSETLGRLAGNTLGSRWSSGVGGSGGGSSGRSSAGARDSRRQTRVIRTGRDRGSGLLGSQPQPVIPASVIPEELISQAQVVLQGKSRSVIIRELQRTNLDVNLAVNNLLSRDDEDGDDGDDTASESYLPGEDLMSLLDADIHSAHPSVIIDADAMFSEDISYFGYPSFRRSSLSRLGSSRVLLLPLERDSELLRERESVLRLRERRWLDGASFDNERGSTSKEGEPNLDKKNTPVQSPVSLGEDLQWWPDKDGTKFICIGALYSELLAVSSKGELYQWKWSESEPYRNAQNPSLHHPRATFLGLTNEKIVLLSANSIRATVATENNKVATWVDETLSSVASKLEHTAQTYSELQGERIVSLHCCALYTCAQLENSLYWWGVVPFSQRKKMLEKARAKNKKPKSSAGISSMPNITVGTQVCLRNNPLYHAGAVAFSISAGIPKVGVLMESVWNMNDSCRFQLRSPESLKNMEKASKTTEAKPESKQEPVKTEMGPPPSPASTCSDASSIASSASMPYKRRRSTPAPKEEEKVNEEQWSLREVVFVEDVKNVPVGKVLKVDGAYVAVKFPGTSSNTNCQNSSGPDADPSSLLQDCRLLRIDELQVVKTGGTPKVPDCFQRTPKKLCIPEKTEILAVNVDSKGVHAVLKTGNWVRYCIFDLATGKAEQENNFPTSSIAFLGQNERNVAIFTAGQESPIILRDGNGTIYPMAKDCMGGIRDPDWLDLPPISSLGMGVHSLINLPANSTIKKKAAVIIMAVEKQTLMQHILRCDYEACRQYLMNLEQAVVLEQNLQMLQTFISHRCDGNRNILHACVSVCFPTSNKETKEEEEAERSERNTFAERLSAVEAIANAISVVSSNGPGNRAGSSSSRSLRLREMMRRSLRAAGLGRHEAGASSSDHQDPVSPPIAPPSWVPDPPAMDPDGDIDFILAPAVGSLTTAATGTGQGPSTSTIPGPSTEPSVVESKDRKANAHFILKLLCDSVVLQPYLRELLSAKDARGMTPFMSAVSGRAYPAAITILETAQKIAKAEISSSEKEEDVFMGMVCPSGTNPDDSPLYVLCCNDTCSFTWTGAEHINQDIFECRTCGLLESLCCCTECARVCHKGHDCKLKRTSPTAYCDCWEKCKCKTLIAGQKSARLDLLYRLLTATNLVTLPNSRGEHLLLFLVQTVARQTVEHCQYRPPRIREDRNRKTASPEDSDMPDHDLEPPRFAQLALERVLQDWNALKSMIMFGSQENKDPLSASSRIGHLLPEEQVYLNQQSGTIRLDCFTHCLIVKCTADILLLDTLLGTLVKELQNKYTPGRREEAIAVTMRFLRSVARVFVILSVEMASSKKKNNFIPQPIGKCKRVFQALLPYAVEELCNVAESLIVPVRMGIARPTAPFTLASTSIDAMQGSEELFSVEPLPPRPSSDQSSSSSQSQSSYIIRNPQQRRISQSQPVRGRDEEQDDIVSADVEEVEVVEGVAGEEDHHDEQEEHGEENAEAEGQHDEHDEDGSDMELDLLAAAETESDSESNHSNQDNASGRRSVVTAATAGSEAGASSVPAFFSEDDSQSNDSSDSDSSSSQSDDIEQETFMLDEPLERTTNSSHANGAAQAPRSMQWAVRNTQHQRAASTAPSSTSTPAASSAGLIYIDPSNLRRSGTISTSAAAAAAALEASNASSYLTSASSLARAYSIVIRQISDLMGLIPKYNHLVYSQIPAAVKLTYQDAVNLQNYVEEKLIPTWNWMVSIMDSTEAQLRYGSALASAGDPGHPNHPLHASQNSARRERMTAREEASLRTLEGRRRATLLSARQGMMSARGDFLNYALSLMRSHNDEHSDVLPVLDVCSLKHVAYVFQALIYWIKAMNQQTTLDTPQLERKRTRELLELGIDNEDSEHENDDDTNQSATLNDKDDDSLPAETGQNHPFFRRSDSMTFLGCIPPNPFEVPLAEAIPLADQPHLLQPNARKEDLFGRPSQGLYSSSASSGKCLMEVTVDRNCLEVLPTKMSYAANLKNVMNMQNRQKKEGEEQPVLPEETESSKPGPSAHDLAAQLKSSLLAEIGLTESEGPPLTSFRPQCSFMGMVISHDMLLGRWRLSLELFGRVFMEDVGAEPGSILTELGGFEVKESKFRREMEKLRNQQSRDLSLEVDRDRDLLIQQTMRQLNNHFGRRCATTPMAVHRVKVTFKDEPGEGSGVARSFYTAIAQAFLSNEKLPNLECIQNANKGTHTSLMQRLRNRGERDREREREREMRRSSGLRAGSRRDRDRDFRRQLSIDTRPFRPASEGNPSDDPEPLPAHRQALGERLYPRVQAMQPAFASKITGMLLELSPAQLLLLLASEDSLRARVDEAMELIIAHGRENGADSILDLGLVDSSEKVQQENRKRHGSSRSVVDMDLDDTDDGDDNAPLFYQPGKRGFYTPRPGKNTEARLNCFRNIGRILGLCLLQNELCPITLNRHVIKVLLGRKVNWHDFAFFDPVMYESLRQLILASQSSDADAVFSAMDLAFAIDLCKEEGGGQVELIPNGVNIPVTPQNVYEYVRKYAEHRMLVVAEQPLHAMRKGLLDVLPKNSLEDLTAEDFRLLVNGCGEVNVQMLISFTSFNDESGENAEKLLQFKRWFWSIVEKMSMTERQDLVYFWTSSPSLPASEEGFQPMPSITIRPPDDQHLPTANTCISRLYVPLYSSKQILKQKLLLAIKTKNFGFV

Molecular target: cyclin-dependent kinase 1 (CDK1) (human (endogenous in HCT8-OR and HT29-OR)) (UniProt P06493)
Test: affinity purification with mass spectrometry; CDK1 binding proteins enriched (immunoprecipitated by CDK1), followed by mass spectrometry; cells not given

E3 ubiquitin ligase UBR5 (from UniProt O95071 1-2799) (enzyme)
binding: binds
